Results from PMC4921775, “Transient Fcho1/2⋅Eps15/R⋅AP-2 Nanoclusters Prime the AP-2 Clathrin Adaptor for Cargo Binding” (Developmental Cell, 2016).
No constants are given. Whether binding was seen depends on the method and setting. Binding can be weak; no strength is given.

Biological target: zebrafish Fcho1 μHD (residues 867–1,152) of the EPS15-Fcho1 μHD chimera (Danio rerio (zebrafish))
Test: crystal structure; EPS15 (615–637)-GAGA-zebrafish Fcho1 μHD (867–1,152) chimera; hanging drops, 100 mM Bis-Tris propane pH 6.0, 200 mM sodium citrate, 22% PEG 3350, 10 mM DTT; 2.4 Å, Xe SAD; both purified

binding: binds
B1: EPS15 (T615–G637) segment of the EPS15-Fcho1 μHD chimera (peptide, UniProt P42566 615-637)
chain: TNLDFFQSDPFVGSDPFKDDPFG
